Publication PMC11796622
Results are given in words; binding and its absence hold for the method and conditions named. In cells and extracts the contact can be indirect. Some binding calls cover weakened binding; strength is not graded here. Where a sequence is shown, tags or fusion partners need not be part of it.

The chains behind the UniProt entries cited, without tags or fusion partners. Where a name states a change or a piece, a line headed by the entry shows the natural chain unless it says otherwise. A line that says so, or that is headed by a name, gives the form on record, which may keep a tag or linker. Residues count along the entry.
IL17RA-Wt-HA (wild-type interleukin 17 receptor type A, HA-tagged) (Q96F46, residues 33-866): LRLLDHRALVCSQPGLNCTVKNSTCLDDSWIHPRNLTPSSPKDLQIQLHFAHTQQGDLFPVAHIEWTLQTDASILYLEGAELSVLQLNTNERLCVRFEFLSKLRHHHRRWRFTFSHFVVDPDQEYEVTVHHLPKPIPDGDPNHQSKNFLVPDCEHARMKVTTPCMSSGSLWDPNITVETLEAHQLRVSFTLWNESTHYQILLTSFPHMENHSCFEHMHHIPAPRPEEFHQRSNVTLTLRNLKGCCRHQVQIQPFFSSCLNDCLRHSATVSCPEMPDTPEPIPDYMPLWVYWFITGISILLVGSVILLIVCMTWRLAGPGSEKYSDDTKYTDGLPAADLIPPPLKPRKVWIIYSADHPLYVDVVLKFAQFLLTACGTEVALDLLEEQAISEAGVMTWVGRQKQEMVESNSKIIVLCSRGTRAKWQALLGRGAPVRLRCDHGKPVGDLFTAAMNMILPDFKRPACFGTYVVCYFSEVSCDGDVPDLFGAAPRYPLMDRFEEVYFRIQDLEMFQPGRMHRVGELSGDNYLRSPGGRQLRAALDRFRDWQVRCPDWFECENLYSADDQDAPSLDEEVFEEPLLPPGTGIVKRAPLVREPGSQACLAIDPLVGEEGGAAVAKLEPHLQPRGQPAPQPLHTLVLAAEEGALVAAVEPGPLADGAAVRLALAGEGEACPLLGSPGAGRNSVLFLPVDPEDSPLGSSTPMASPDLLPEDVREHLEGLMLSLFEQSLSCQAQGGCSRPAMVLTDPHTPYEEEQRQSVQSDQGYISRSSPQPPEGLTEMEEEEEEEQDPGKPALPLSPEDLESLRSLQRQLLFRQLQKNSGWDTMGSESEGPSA
IL17RA-Y391*-HA (IL17RA p.Tyr391Ter mutant, HA-tagged) (Q96F46, residues 33-390): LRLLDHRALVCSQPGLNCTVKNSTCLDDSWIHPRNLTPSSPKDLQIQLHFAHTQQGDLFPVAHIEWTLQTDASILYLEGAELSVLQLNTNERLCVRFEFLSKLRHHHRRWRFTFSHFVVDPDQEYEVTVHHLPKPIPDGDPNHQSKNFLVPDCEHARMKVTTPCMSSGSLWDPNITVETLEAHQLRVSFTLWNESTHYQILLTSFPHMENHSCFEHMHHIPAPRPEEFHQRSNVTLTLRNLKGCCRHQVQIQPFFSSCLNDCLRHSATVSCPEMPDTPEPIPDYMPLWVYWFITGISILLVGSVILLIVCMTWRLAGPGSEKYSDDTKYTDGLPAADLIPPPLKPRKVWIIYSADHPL

Target: T1, IL17RC-Flag (human) (UniProt Q8NAC3)
T1 sequence: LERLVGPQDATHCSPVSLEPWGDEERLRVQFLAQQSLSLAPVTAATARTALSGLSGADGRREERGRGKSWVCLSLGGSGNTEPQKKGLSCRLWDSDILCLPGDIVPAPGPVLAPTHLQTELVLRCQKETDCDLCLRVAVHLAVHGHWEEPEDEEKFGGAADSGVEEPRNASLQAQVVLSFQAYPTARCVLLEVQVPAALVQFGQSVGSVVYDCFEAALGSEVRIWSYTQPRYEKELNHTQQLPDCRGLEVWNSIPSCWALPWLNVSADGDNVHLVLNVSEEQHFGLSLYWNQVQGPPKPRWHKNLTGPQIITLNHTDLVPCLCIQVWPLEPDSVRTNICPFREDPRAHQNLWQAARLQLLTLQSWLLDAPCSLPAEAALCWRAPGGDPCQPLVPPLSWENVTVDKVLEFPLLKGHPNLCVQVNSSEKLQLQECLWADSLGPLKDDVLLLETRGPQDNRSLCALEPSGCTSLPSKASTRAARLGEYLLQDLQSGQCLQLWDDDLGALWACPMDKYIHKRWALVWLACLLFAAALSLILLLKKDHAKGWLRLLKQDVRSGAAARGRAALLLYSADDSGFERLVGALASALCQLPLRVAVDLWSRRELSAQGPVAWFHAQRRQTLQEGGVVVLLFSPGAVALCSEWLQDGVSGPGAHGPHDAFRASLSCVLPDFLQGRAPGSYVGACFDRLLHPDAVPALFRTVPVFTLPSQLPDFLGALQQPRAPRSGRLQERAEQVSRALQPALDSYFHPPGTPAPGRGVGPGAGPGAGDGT
Assay: co-IP; HEK293T cells co-transfected with IL17RA-HA (Wt or Y391*) and IL17RC-Flag or IL17RD-Flag (1.0 ug each); IP with mouse anti-DDDDK (Flag) agarose; western blots with anti-HA and anti-Flag

binding	Substance
binds	IL17RA-Wt-HA (wild-type interleukin 17 receptor type A, HA-tagged) (from UniProt Q96F46-1 33-866)
binds	IL17RA-Y391*-HA (IL17RA p.Tyr391Ter mutant, HA-tagged) (from UniProt Q96F46-1 33-390) (receptor)
